Measured values as given in article PMC6907878.
No constants are given. Whether binding was seen depends on the method and setting. Binding can be weak; no strength is given. For some assays here: Binding seen in cells or lysates may run through a third protein.

The chains behind the UniProt entries cited, without tags or fusion partners. Where a name states a change or a piece, a line headed by the entry shows the natural chain unless it says otherwise. Residues count along the entry.
UniProt P00282, residues 21-148: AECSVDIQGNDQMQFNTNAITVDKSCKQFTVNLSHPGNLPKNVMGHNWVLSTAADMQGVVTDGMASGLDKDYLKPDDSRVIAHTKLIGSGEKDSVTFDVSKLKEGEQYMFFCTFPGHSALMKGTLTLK
UniProt G3XD89: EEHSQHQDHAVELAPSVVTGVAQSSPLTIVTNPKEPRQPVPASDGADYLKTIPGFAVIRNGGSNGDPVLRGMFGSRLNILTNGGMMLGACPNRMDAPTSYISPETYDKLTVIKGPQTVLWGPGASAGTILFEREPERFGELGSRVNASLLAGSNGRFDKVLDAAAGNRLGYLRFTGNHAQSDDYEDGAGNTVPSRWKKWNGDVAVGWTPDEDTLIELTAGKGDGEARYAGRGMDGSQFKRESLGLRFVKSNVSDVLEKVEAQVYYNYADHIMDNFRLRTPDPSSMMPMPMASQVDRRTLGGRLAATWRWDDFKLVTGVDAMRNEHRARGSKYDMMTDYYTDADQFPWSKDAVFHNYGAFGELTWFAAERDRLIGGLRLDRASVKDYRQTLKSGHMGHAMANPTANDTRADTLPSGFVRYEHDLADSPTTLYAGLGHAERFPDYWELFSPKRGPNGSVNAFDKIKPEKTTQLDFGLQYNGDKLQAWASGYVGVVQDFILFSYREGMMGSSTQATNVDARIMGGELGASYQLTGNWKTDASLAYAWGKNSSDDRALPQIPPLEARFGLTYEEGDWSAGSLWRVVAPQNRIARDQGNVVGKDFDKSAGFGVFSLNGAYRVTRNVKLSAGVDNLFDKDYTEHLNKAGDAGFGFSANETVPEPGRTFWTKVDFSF

Assays:
[1] = target: Azu-Flag (Pseudomonas aeruginosa PAO1) (UniProt P00282); assay: co-IP; OprC-His6 and Azu-Flag co-expressed in PAO1; lysate (20 mM Tris, 150 mM NaCl, 0.1% Triton X-100, pH 8.0) incubated with anti-Flag M2 magnetic beads 4 h at 4 C; washed with 500 mM NaCl; blots against Flag or His antibody
[2] = target: GST-Azu (glutathione S-transferase-tagged azurin) (Pseudomonas aeruginosa PAO1) (UniProt P00282); assay: pull-down; 100 ug purified GST or GST-Azu on glutathione beads, 20 ug His6-OprC added, 4 h at 4 C; washed with GST binding buffer containing 500 mM NaCl; immunoblot; both purified

Substance | binding [1] | binding [2]
OprC-His6 (expressed in P. aeruginosa from pMMB67H-oprC-His6) (from UniProt G3XD89) | binds | –
His6-OprC (recombinant, refolded) (from UniProt G3XD89) | – | binds
